No constants are given. Whether binding was seen depends on the method and setting. Binding seen in cells or lysates may run through a third protein. Some entries that bind do so weakly or less than the wild type. Sequences can lack the tags named with a protein.
Target: T1, TOPORS (human (endogenous in HeLa)) (UniProt Q9NS56)
T1 sequence: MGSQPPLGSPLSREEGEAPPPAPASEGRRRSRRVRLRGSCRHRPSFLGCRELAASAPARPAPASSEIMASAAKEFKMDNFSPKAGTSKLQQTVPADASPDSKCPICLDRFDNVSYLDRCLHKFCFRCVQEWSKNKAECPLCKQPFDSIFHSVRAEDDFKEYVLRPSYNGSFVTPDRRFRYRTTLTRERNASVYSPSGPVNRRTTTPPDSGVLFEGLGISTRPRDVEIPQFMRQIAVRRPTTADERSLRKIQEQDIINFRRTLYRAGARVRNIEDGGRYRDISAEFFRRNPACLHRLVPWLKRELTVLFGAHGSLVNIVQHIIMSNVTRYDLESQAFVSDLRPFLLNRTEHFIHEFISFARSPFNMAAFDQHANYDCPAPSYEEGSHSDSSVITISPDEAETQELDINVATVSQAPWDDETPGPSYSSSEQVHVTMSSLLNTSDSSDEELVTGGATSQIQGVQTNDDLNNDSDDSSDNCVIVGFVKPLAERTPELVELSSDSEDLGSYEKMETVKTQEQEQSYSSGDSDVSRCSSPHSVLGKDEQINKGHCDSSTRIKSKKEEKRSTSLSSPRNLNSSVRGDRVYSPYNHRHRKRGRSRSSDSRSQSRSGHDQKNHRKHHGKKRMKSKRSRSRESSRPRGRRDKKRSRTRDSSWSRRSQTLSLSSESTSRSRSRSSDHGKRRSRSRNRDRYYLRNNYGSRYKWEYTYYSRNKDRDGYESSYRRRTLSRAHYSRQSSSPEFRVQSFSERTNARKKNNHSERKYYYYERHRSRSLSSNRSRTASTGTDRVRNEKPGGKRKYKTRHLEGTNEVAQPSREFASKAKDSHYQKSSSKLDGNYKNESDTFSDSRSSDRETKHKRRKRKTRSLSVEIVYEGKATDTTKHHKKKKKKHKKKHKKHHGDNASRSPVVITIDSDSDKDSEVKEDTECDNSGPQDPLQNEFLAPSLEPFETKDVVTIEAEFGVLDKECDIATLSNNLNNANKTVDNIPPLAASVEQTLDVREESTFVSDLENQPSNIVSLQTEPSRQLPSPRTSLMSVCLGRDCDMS
Assay: co-IP; co-immunoprecipitation of endogenous proteins from HeLa cell extracts

B1: Prostaglandin-D2 synthase (protein, UniProt P41222 23-190)
chain: APEAQVSVQPNFQQDKFLGRWFSAGLASNSSWLREKKAALSMCKSVVAPATDGGLNLTSTFLRKNQCETRTMLLQPAGSLGSYSYRSPHWGSTYSVSVVETDYDQYALLYSQGSKGPGEDFRMATLYSRTQTPRAELKEKFTAFCKAQGFTEDTIVFLPQTDKCMTEQ
- binding: binds
